PubChem BioAssay AID652272 – Drosophila RNAi Screening Center | 2013

- Test: 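Finding fly genes that regulate Hedgehog signal transduction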 (primary screen)
- Cell system: Drosophila clone 8 (Cl8) cells
- Knock-down reagent: long dsRNA against Drosophila genes
- Measurement: 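Plate reader light from a firefly reporter under a ptc promoter fragment that responds to Hedgehog, with Renilla light as transfection reference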
- Direction: firefly Hh reporter signal: higher = more ptc reporter light; Renilla reference signal: higher = more Renilla control light
- Hit rule: 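Hit when the z-score averaged over two replicates is under -2 or over +3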
- Calls: active = hit: reporter lowered or raised; inactive = not a hit
The screen tested about 21,000 reagents; below is a random part of those that have a named target and a result. Over the whole deposit, 503 (2.4%) were called active. 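Raw plate light values, not normalised; calls rest on replicate z-scores that were not deposited; hits include reporter decreases as well as increases.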 No sequences are given here. Not given: the amount of reagent, the time to read-out.

CG1231 [DRSC08267] — firefly Hh reporter signal, replicate 1 = 76400; firefly Hh reporter signal, replicate 2 = 44772; Renilla reference signal, replicate 1 = 1847; Renilla reference signal, replicate 2 = 3799; Call = inactive
Schip1 [DRSC02851] — firefly Hh reporter signal, replicate 1 = 1.19e5; firefly Hh reporter signal, replicate 2 = 51730; Renilla reference signal, replicate 1 = 3349; Renilla reference signal, replicate 2 = 5585; Call = inactive
sphinx1 [DRSC10993] — firefly Hh reporter signal, replicate 1 = 27808; firefly Hh reporter signal, replicate 2 = 66838; Renilla reference signal, replicate 1 = 2946; Renilla reference signal, replicate 2 = 4880; Call = inactive
Cyp4g1 [DRSC18459] — firefly Hh reporter signal, replicate 1 = 87060; firefly Hh reporter signal, replicate 2 = 78209; Renilla reference signal, replicate 1 = 2119; Renilla reference signal, replicate 2 = 2583; Call = inactive
CG8641 [DRSC11028] — firefly Hh reporter signal, replicate 1 = 75520; firefly Hh reporter signal, replicate 2 = 77991; Renilla reference signal, replicate 1 = 7882; Renilla reference signal, replicate 2 = 5165; Call = inactive
CG13359 [DRSC18539] — firefly Hh reporter signal, replicate 1 = 94199; firefly Hh reporter signal, replicate 2 = 2.34e5; Renilla reference signal, replicate 1 = 3634; Renilla reference signal, replicate 2 = 10077; Call = inactive
CG9521 [DRSC20196] — firefly Hh reporter signal, replicate 1 = 77368; firefly Hh reporter signal, replicate 2 = 1.57e5; Renilla reference signal, replicate 1 = 2456; Renilla reference signal, replicate 2 = 6694; Call = inactive
Or85d [DRSC16767] — firefly Hh reporter signal, replicate 1 = 68763; firefly Hh reporter signal, replicate 2 = 89195; Renilla reference signal, replicate 1 = 2576; Renilla reference signal, replicate 2 = 2347; Call = inactive
rdgB [DRSC20365] — firefly Hh reporter signal, replicate 1 = 5.84e5; firefly Hh reporter signal, replicate 2 = 77380; Renilla reference signal, replicate 1 = 3206; Renilla reference signal, replicate 2 = 3206; Call = inactive
CG7394 [DRSC10835] — firefly Hh reporter signal, replicate 1 = 77811; firefly Hh reporter signal, replicate 2 = 66474; firefly Hh reporter signal, replicate 3 = 66120; Renilla reference signal, replicate 1 = 5893; Renilla reference signal, replicate 2 = 4155; Call = inactive
omd [DRSC16507] — firefly Hh reporter signal, replicate 1 = 1.44e5; firefly Hh reporter signal, replicate 2 = 90040; Renilla reference signal, replicate 1 = 5106; Renilla reference signal, replicate 2 = 3504; Call = inactive
hoip [DRSC03546] — firefly Hh reporter signal, replicate 1 = 9339; firefly Hh reporter signal, replicate 2 = 9264; Renilla reference signal, replicate 1 = 560; Renilla reference signal, replicate 2 = 1234; Call = active

Reagents listed above with an active call (1):
hoip [DRSC03546] — firefly Hh reporter signal, replicate 1 = 9339; firefly Hh reporter signal, replicate 2 = 9264; Renilla reference signal, replicate 1 = 560; Renilla reference signal, replicate 2 = 1234; Call = active
